# From PubChem BioAssay (EPA / NIEHS)
# By UniProt entry, the sequences of proteins in these tests, tags left out. Where a name states a change or a piece, a line headed by the entry shows the natural chain unless it says otherwise.
# UniProt P41143, whole entry, looked up: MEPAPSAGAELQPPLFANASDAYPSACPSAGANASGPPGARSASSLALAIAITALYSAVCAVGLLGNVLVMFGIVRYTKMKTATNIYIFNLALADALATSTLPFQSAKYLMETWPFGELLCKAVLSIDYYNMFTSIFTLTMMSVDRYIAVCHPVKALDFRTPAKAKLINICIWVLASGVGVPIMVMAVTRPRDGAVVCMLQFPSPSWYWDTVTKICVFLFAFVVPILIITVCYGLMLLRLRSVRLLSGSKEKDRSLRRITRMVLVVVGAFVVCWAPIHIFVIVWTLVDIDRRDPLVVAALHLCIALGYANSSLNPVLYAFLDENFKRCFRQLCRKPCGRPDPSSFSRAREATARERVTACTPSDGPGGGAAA
# UniProt P41146: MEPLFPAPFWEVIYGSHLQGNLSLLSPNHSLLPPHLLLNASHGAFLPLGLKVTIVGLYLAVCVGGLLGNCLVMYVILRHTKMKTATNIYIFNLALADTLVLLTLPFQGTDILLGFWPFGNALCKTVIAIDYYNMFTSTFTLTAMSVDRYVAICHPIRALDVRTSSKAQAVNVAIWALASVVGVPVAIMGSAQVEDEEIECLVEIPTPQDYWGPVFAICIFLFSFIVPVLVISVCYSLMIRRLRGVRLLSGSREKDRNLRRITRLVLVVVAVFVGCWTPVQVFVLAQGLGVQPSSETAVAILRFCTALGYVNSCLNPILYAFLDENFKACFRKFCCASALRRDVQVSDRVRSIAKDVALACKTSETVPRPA
# UniProt P43140: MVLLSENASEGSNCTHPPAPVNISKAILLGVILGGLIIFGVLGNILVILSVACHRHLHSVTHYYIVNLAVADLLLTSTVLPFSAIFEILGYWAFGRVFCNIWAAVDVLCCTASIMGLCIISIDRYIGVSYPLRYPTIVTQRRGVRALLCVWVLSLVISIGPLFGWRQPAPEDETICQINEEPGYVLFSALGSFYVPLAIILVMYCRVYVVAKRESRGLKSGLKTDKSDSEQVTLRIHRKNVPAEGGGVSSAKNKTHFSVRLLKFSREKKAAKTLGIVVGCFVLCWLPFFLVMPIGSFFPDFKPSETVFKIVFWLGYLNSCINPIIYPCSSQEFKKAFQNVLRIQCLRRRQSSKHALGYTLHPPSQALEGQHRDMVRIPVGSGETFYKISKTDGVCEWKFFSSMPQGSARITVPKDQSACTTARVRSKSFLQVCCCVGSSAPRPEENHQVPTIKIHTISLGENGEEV
# UniProt P37288, whole entry, looked up: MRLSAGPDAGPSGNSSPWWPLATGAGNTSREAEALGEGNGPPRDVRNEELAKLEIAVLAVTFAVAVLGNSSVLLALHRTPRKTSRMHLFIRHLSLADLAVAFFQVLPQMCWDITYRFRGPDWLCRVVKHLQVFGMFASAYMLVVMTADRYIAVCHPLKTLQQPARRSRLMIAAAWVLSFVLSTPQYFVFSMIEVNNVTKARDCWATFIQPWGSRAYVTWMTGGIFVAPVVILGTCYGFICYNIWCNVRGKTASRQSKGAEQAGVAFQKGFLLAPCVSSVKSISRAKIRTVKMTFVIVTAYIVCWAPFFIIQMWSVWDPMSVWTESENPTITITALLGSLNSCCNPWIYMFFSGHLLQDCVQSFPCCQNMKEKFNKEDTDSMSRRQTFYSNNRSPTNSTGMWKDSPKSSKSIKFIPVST
# UniProt O08786, whole entry, looked up: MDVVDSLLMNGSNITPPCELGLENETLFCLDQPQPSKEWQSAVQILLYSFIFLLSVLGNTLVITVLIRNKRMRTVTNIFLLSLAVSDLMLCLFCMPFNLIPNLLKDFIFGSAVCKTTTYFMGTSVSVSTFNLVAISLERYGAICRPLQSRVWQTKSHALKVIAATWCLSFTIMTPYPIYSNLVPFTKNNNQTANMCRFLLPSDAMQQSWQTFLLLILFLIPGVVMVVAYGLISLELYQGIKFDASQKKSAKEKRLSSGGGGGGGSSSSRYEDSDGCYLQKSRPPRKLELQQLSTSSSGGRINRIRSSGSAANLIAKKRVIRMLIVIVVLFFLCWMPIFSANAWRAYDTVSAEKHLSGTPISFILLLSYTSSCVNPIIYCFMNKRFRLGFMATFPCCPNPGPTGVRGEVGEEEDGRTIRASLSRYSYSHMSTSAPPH
# UniProt P35372, whole entry, looked up: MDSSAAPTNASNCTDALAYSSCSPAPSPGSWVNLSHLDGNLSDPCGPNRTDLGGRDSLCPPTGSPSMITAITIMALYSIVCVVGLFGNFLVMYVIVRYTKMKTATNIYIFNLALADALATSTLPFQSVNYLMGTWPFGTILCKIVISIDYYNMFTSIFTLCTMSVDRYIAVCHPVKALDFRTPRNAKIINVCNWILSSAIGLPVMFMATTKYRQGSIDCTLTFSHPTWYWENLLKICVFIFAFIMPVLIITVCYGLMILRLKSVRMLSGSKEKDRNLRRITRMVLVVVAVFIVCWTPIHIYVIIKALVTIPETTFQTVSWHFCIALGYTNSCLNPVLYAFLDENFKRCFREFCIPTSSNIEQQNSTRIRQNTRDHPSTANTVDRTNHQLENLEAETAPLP
# UniProt O70528: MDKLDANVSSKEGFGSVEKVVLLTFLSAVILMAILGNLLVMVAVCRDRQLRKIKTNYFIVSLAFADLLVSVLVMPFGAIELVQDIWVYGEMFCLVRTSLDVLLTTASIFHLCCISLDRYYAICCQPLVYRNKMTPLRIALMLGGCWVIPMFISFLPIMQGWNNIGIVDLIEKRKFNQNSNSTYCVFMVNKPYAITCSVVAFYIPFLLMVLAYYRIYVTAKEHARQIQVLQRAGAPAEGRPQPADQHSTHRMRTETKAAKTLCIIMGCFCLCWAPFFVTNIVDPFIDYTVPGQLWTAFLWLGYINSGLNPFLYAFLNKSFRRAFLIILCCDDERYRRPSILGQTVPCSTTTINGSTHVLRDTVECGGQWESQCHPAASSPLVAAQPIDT
# UniProt P19327, whole entry, looked up: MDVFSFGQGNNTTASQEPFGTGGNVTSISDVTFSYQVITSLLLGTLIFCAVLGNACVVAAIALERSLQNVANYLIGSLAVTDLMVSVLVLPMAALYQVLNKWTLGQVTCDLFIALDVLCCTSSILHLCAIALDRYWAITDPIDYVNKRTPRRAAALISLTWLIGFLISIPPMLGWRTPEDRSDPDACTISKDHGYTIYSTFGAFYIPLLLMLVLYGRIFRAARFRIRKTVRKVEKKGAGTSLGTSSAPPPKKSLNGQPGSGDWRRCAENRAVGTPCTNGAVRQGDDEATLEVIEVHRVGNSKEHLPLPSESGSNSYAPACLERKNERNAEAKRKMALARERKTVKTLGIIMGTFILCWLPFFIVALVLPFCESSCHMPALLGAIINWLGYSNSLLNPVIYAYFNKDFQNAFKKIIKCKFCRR
# UniProt P56481: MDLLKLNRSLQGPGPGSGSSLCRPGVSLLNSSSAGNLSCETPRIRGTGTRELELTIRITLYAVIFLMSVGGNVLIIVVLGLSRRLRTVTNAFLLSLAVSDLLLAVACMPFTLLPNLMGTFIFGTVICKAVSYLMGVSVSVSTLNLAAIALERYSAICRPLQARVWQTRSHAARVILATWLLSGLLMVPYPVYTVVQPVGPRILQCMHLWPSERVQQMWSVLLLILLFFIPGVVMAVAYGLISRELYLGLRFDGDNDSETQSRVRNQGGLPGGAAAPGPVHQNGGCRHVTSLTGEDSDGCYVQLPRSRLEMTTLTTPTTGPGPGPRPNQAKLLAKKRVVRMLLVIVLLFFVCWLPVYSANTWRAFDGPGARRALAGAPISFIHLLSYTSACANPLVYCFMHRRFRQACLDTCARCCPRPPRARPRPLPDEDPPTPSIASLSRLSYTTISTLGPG
# The shares of active, inactive and inconclusive entries below differ from those in the screen. For part of these data: Potencies beside an inconclusive call are fits to weak or partial responses and may not hold up. Calls of active or inactive are those of the source. Rule for the calls: active = hit-call score of the fitted dose curve at least 0.9, where 1 is the maximum; inconclusive = response in the unintended direction; inactive = score below 0.9.
# Columns and labels:
# [1] = molecular target: human Opioid Receptor Delta 1 (Opiate D1), OPRD1 (gene 4985) (UniProt P41143); assay: NVS_GPCR_hOpiate_D1: NovaScreen (NVS) G Protein-Coupled Receptor Assay for human Opioid Receptor Delta 1 (Opiate D1) (AID 2283280)
# How it was run: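 Membrane preparations from CHO cells bearing the human receptor were incubated 1 h with test chemical, and bound radioligand was counted after filtration. Actives from 25 uM duplicate screening were retested in concentration-response.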
# [2] = molecular target: human Orphanin, Opioid Related Nociceptin Receptor 1 (ORL1), OPRL1 (gene 4987) (UniProt P41146); assay: NVS_GPCR_hORL1: NovaScreen (NVS) G Protein-Coupled Receptor Assay for human Orphanin, Opioid Related Nociceptin Receptor 1 (ORL1) (AID 2283283)
# How it was run: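 Cell-free binding using HEK293-derived receptor protein: radioligand displacement measured by filter scintillation 1 hour after dosing. Primary testing at 25 uM in duplicate, followed by singleton concentration series up to 50 uM; DMSO served as negative control.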
# [3] = tested on: 5-hydroxytryptamine receptor 2C (pig); assay: NVS_GPCR_p5HT2C: NovaScreen (NVS) G Protein-Coupled Receptor Assay for pig Serotonin, 5-Hydroxytryptamine Receptor 2C (5HT2C) (AID 2283288)
# How it was run: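 Radioligand displacement on membranes from pig choroid plexus, detected by filter scintillation counting after 1 h. Tested first at a single 25 uM in duplicate, then in concentration-response for actives; DMSO served as baseline.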
# [4] = molecular target: rat Adrenergic, Alpha 1A Receptor (Adra1A), Adra1a (gene 29412) (UniProt P43140); assay: NVS_GPCR_rAdra1A: NovaScreen (NVS) G Protein-Coupled Receptor Assay for rat Adrenergic, Alpha 1A Receptor (Adra1A) (AID 2283296)
# How it was run: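 Filter radiodetection after 1 h competitive binding on CEC-pretreated rat cortical membranes. Duplicate single-point screening at 25 uM; active chemicals retested across concentration series.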
# [5] = molecular target: human Vasopressin 1A Receptor (V1A), AVPR1A (gene 552) (UniProt P37288); assay: NVS_GPCR_hV1A: NovaScreen (NVS) G Protein-Coupled Receptor Assay for human Vasopressin 1A Receptor (V1A) (AID 2283284)
# How it was run: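 Single-concentration duplicate screen at 25 uM, with concentration-response follow-up (top 50 uM) for actives. The assay measured displacement of a radioligand from human platelet-derived receptor after 1.5 h, detected by filtration and scintillation counting.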
# [6] = molecular target: mouse Cholecystokinin, CCK1 Receptor (CCKA), Cckar (gene 12425) (UniProt O08786); assay: NVS_GPCR_mCCKAPeripheral: NovaScreen (NVS) G Protein-Coupled Receptor Assay for mouse Cholecystokinin, CCK1 Receptor (CCKA) (AID 2283285)
# How it was run: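 Chemicals were first screened in duplicate at 25 uM, with those meeting threshold (e.g., 30% inhibition) retested in singleton concentration series to 50 uM maximum. Binding of radioligand to mouse pancreatic membranes was read after 2 h by filtration and scintillation counting.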
# [7] = molecular target: human Opioid Receptor Mu (Opiate Mu), OPRM1 (gene 4988) (UniProt P35372); assay: NVS_GPCR_hOpiate_mu: NovaScreen (NVS) G Protein-Coupled Receptor Assay for human Opioid Receptor Mu (Opiate Mu) (AID 2283290);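 note: hits lower bound tracer signal versus DMSO meaning displacement of the ligand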
# How it was run: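 Cell-free radioligand binding to membranes from CHO cells expressing the receptor; bound tracer measured by filter-based scintillation counting 2.5 hours after dosing. Loss of signal versus DMSO baseline reflects displacement; primary screen at 25 uM in duplicate, actives followed up in concentration series.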
# [8] = molecular target: guinea pig Serotonin, 5-Hydroxytryptamine Receptor 4 (5HT4), HTR4 (gene 100135548) (UniProt O70528); assay: NVS_GPCR_g5HT4: NovaScreen (NVS) G Protein-Coupled Receptor Assay for guinea pig Serotonin, 5-Hydroxytryptamine Receptor 4 (5HT4) (AID 2283294)
# How it was run: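 Compounds first screened in duplicate at 25 uM, actives followed up in concentration series. Binding measured as displacement of specific radioligand from guinea pig striatal membranes, 1 h, filter-based scintillation read-out versus DMSO baseline.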
# [9] = molecular target: rat Serotonin, 5-Hydroxytryptamine Receptor (5HT), Non-Selective Binding, Htr1a (gene 24473) (UniProt P19327); assay: NVS_GPCR_r5HT_NonSelective: NovaScreen (NVS) G Protein-Coupled Receptor Assay for rat Serotonin, 5-Hydroxytryptamine Receptor (5HT), Non-Selective Binding (AID 2283295)
# How it was run: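 Rat cortex membrane preparation incubated 1 h with radioligand and test chemical; bound radioactivity counted after filtration. Screening began in duplicate at 25 uM with concentration-series follow-up; fitting relative to DMSO.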
# [10] = molecular target: mouse Cholecystokinin, CCK2 Receptor (CCKB), Cckbr (gene 12426) (UniProt P56481); assay: NVS_GPCR_mCKKBCentral: NovaScreen (NVS) G Protein-Coupled Receptor Assay for mouse Cholecystokinin, CCK2 Receptor (CCKB) (AID 2283293)
# How it was run: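 Mouse forebrain membrane preparation incubated 2 h with chemical and radioligand; bound radioactivity counted after filtration. Single-concentration duplicate screen at 25 uM, then concentration series to 50 uM max for hits, DMSO as baseline.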
structure (smiles),measurement,setting,value
CN(C)C(=O)C1(N2CCCCC2)CCN(CC[C@@]2(c3ccc(Cl)c(Cl)c3)CN(C(=O)c3ccccc3)CCO2)CC1,AC50,[1],active: 10.3 µM
C[C@]12C=CC(=O)C=C1CC[C@H]1[C@@H]3C[C@@H](O)[C@](O)(C(=O)CO)[C@@]3(C)C[C@H](O)[C@@]12F,AC50,[1],inconclusive: 1.34 µM
O=C(c1ccc(OCCN2CCCCC2)cc1)c1c(-c2ccc(O)cc2)sc2cc(O)ccc12,AC50,[2],active: 0.982 µM
same,AC50,[3],inconclusive: 41.3 µM
same,AC50,[4],active: 5.36 µM
Oc1ccc2ccccc2c1N=Nc1ccccc1,AC50,[2],inconclusive: 0.038 µM
O=C=NCCCCCCN=C=O,AC50,[5],inconclusive: 25.4 µM
CCN(CC)C(=O)c1cc(S(=O)(=O)Cc2ccccc2)c(N2CCC(c3ccccc3)CC2)cc1N(CC)CCN(C)C,AC50,[5],inconclusive: 39.4 µM
CN(Cc1cnc2nc(N)nc(N)c2n1)c1ccc(C(=O)N[C@@H](CCC(=O)O)C(=O)O)cc1,AC50,[6],inconclusive: 25 µM
CCCCCOC(=O)COc1cc(N2C(=O)C3=C(CCCC3)C2=O)c(F)cc1Cl,outcome,[7],inactive
O=C(O)Cc1cc(I)c(Oc2cc(I)c(O)c(I)c2)c(I)c1,AC50,[8],inconclusive: 16.8 µM
CCCCc1oc2ccccc2c1C(=O)c1cc(I)c(OCCN(CC)CC)c(I)c1,AC50,[8],active: 15.7 µM
COc1ccc2cc(S(=O)(=O)N[C@H](CC(=O)N[C@H](Cc3ccc(CN4[C@H](C)CCC[C@@H]4C)cc3)C(=O)N(C)C(C)C)c3ccc4c(c3)OCO4)ccc2c1,outcome,[9],inactive
COc1ccc(S(=O)(=O)N2C(=O)[C@@](c3ccccc3OC)(N3C[C@H](O)C[C@H]3C(=O)N(C)C)c3cc(Cl)ccc32)c(OC)c1,outcome,[1],inactive
same,AC50,[10],active: 25 µM

# Three entries from above, reformatted:
structure (smiles)	measurement	setting	value
CCN(CC)C(=O)c1cc(S(=O)(=O)Cc2ccccc2)c(N2CCC(c3ccccc3)CC2)cc1N(CC)CCN(C)C	AC50	[5]	inconclusive: 39.4 µM
CN(Cc1cnc2nc(N)nc(N)c2n1)c1ccc(C(=O)N[C@@H](CCC(=O)O)C(=O)O)cc1	AC50	[6]	inconclusive: 25 µM
CCCCCOC(=O)COc1cc(N2C(=O)C3=C(CCCC3)C2=O)c(F)cc1Cl	outcome	[7]	inactive
